{"source": "paper PMC11162770", "about": "“The mutation R107Q alters mtSSB ssDNA compaction ability and binding dynamics” (Nucleic Acids Research, 2024)", "key": {"[1]": {"molecular_target": "T1, mtSSB WT (His-tag, C-terminal Cys) (human) (UniProt Q04837)", "T1 sequence (looked up)": "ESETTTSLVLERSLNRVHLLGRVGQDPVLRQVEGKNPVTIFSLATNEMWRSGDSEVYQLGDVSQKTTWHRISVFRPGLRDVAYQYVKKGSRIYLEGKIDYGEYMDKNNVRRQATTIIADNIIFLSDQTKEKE", "experiment": "EMSA", "details": "10 mM Mg2+, 2 mM ATP, 100-200 nM monomer, EMSA: 20 mM Tris-HCl pH 7.8, 10 mM MgCl2, 0.1 mg/ml BSA, 10 mM DTT, 10% glycerol, room temperature, recombinant protein, residues 17-148, protein details: N-terminal His, extra C-terminal Cys, label: 5' ATTO647 (ATTO647N in Fig S1), single-stranded DNA"}, "[2]": {"molecular_target": "T2, mtSSB WT-Alexa555/647 (human) (UniProt Q04837)", "T2 sequence (looked up)": "T1 sequence (looked up)", "experiment": "EMSA", "details": "Alexa555, 10 mM Mg2+, 2 mM ATP, labelling checked for effect on binding, EMSA: 20 mM Tris-HCl pH 7.8, 10 mM MgCl2, 0.1 mg/ml BSA, 10 mM DTT, 10% glycerol, room temperature, recombinant protein, residues 17-148, label: 5' ATTO647 (ATTO647N in Fig S1), single-stranded DNA"}}, "note": "For at least one entry, the source does not settle the construct or the ends of the probe. At least one verdict rests on a figure or table, not on a statement of the authors. Protein sequences can lack the tags named with them."}
{"sequence": "GTTAGTTGGGGGGTGACTGTTA [22-nt oligonucleotide]", "values": [{"measurement": "binding result", "setting": "[1]", "result": "binds"}, {"measurement": "binding result", "setting": "[2]", "result": "binds"}]}
